Assay results published in PMC10470608, “Bacterial TANGO2 homologs are heme-trafficking proteins that facilitate biosynthesis of cytochromes c” (mBio, 2023).
These are yes or no findings as the source states them, for the method shown. In cells and extracts the contact can be indirect. Here binding means that the protein was enriched with, or labelled near, the bait; the list need not be complete. No binding means not detected with the bait.

The chains behind the UniProt entries cited, without tags or fusion partners. Where a name states a change or a piece, a line headed by the entry shows the natural chain unless it says otherwise.
UniProt Q8EKG7: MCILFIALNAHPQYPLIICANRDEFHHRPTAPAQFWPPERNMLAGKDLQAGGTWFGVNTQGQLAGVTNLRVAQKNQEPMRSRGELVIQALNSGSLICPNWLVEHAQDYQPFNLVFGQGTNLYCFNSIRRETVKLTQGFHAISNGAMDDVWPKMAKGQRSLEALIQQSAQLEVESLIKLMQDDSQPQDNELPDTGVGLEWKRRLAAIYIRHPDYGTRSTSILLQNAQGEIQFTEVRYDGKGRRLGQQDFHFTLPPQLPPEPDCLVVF
UniProt Q8CX48: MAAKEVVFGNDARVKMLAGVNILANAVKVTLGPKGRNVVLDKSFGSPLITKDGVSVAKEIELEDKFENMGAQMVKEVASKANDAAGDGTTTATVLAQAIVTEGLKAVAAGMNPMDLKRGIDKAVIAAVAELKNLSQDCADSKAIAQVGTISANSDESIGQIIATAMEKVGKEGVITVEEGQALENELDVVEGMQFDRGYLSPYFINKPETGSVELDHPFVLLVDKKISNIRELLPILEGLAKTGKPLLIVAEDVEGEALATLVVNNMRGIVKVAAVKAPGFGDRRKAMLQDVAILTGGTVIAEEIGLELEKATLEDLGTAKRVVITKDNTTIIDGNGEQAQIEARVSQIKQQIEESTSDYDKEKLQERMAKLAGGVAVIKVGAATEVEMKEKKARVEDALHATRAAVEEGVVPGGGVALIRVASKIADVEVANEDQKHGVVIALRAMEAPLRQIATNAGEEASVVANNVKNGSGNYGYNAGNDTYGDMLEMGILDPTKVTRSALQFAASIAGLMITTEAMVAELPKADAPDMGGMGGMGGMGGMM
UniProt Q8EBE6: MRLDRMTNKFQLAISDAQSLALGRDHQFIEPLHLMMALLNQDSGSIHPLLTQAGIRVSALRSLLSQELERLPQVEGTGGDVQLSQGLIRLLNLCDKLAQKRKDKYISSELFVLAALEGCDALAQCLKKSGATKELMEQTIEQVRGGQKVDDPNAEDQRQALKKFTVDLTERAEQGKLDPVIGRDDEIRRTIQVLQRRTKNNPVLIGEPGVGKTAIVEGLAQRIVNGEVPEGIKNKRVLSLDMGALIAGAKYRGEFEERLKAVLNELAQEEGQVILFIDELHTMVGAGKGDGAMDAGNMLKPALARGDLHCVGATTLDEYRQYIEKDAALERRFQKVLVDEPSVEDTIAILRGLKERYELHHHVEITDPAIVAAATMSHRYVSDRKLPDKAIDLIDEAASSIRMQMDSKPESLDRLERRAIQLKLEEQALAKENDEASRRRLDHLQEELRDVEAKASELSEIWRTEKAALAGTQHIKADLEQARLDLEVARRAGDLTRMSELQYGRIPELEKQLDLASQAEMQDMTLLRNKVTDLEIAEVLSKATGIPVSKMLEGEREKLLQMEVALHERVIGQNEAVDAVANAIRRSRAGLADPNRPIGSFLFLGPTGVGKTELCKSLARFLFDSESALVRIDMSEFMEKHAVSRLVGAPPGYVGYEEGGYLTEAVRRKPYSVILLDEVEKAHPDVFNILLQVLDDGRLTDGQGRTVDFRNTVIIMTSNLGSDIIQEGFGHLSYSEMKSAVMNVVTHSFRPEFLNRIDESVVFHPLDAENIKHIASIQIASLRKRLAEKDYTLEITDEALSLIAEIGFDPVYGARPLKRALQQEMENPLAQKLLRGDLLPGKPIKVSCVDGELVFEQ
UniProt Q8EHT7: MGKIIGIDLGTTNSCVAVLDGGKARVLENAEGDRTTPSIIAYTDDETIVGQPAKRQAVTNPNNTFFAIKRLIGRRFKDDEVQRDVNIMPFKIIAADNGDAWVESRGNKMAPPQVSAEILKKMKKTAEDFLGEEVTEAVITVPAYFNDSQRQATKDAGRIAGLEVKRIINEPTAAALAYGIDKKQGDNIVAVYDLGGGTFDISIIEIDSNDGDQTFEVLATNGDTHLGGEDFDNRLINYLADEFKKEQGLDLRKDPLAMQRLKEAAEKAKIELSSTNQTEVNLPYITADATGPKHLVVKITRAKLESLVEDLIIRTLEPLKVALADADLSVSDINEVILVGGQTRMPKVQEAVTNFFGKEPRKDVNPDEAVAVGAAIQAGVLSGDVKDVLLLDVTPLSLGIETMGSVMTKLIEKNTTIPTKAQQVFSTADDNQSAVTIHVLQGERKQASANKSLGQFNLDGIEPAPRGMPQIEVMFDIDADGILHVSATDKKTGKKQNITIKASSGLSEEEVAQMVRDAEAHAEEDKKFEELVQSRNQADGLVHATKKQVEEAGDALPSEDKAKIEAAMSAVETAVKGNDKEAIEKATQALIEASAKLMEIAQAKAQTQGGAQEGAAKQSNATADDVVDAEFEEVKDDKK

B1: HtpG (protein, UniProt Q8EFF7 1-637)
chain: MSQQETHGFQTEVKQLLHLMIHSLYSNKEIFLRELVSNAADAADKLRYLALTNDALYEGDGELRVRISADKEKGTVTIEDNGVGMTRDGVIEHLGTIAKSGTAEFFKNLSGEASKDSQLIGQFGVGFYSAFIVAKKVTVRTRAAGHKANEAVLWESEGEGSFTVETITKATRGTEITLHLRDDEKEFADDWRLRSIITKYSDHISIPVEMWQEGTPERDGPDGEKIPATEGYWKAMNKATALWMRNKSEITDEEYQEFYKHISHDYTDALLWSHNRVEGKQEYTNLLYIPSKAPWDLWNRDRKHGLKLFVQRVFIMDDAEQFMPSYLRFVQGLIDSNDLPLNVSREILQDNHITKAMRTGITKRVLGMLEKLAKDDAEKYQQFWAEFGQVLKEGPAEDFANRERIAGLLRFASTHTGSAAPTVSLDDYISRMKEGQTKIYYIVADSHEAAANSPHLELLRKKGIEVLLMSERIDEWLINHLTEYKEKQLHSVTRGELELGELEDAAEKEAQEKLAEESAPLIERIKAALGASVADVKVTSRLTDTPACVVTGEGEMSTQMIKLMQAAGQPVPEVKPTFEVNPAHPLVSRLNDLQDEAAFADWSNLLLQQAQLSEKGSLADPSAFIKLMNQMLLANLK
B2: catalase KatB (enzyme, UniProt Q8EHY4 1-486)
chain: MSQQYLTSQSGSPIADDQNSLSAGERGPLLLQDWHLIEKLAHFNRERIPERVVHAKGTGVYGTFTLTKDLSDYTIADHFNGVGKQTETFVRFSTVGGEMGSADAERDPRGFGLRFYTARGNHDIVGNNTPTFFLRDGIKFPDFIHTQKRNPLTNLKDPQAMWDFWSLNPEAMHQVTILMSDRGIPANYRQMHGYGSHTFSFWNAKGERFWVKFHFKSQQGVVNLSNEQADKLKGIDPDSSQRDMVVAITDGNFPRWTVNVQIMPEADANTYHINPFDLTKVWPHGDYPLIEIGVLELNRLPQNYFAEVEQVALAPSNLVPGVGASPDKMLQARLFAYADAQRYRIGANYNQLPVNCPHAAKANHHQRAGAMAGTQCPYHGSQTGGDASANYGPNSTIGALVEPANFAEPPLRLDGETARYSRYNQDDYTQAGNLYRIFSEEEKARLVATISGSLRQASMDVQQRMLAHFQKADADYGQRIKMALGL

What follows are molecules tested against HtpA-BirA* fusion (S. oneidensis) (UniProt Q8EKG7) (assay: proximity labelling; BioID: HtpA-BirA* as bait in S. oneidensis ΔhtpA, 15 µg/mL D-biotin and 0.2 mM IPTG for 16 h; biotinylated proteins enriched on beads and identified by LC-MS/MS).

Row | Molecule | binding
1 | GroEL (from UniProt Q8CX48 1-545) | binds
2 | ClpB (from UniProt Q8EBE6 1-857) | binds
3 | DnaK (from UniProt Q8EHT7 1-639) | binds
4 | B1 | binds
5 | B2 | no binding
